Patent publication US8129368B2, “5,6-dihydro-1H-pyridin-2-one compounds” (priority 2008, dated 2012)

System: HCV Huh-luc/neo-ET replicon cells
Experiment: Luciferase-Based HCV Replicon Assay (EC50 (1b))
Format: cell-based
Settings: Hepatitis C virus, 72 h, read-out: EC50(1b) concentration
Experimental: Luciferase-Based HCV Replicon Assay Protocol (EC50 (1b))
The cell culture component of the assay is performed essentially as described by Bartenschlager et al., Hepatology 2002, 35, 694-703, wherein exponentially growing HCV Huh-luc/neo-ET replicon cells were seeded at 6×10^3 cells/well in 96 well assay plate. 24 hours later the cells were treated with various concentrations of compound or combination of compounds in triplicate using both fixed ratios and checkerboard matrices of test agents and cultured for 72 hours. The luciferase activity in the wells was determined using Bright-Glo reagent (Promega, Madison, Wis.) with a luminometer (Wallac 1420 Multilabel HTS Counter Victor 2). The background control was replicon cells treated with 100 nM BILN-2061, an inhibitor of the HCV protease. % Inhibition was determined for each compound concentration in relation to the negative (no compound) control to calculate the EC50(1b).

Structure (SMILES): Cc1cc(CN2C(=O)C(C3=Nc4ccc(NS(C)(=O)=O)cc4S(=O)(=O)N3)=C(O)[C@@H]3[C@@H]4CC[C@@H](C4)[C@@H]32)ccc1F [Example 19, N-{3-[(1S,2S,7R,8R)-3-(4-Fluoro-3-methyl-benzyl)-6-hydroxy-4-oxo-3-aza-tricyclo[6.2.1.0^2,7]undec-5-en-5-yl]-1,1-dioxo-1,2-dihydro-1λ^6-benzo[1,2,4]thiadiazin-7-yl}-methanesulfonamide]
- EC50: < 25 nM
